Assay results taken from US12729225B2, “Non-canonical SWI/SNF complex and uses thereof” (Dana-Farber Cancer Institute, Inc., priority 2018, dated 2026).

Test system: mSWI/SNF complexes
Test: mSWI/SNF complex purification with HA-tagged baits and mass spectrometry (peptide counts)
Parameters: species or system human
Conditions: 293_HA-BRD7 bait purification, mass spectrometry; for Total: total peptide count per identified protein; for Unique: unique peptide count per identified protein

B1: PDHA2 (protein, UniProt P29803 28-388, looked up)
Pyruvate dehydrogenase E1 …: SSNDATFEIKKCDLYLLEEGPPVTTVLTRAEGLKYYRMMLTVRRMELKADQLYKQKFIRGFCHLCDGQEACCVGLEAGINPSDHVITSYRAHGVCYTRGLSVRSILAELTGRRGGCAKGKGGSMHMYTKNFYGGNGIVGAQGPLGAGIALACKYKGNDEICLTLYGDGAANQGQIAEAFNMAALWKLPCVFICENNLYGMGTSTERAAASPDYYKRGNFIPGLKVDGMDVLCVREATKFAANYCRSGKGPILMELQTYRYHGHSMSDPGVSYRTREEIQEVRSKRDPIIILQDRMVNSKLATVEELKEIGAEVRKEIDDAAQFATTDPEPHLEELGHHIYSSDSSFEVRGANPWIKFKSVS
B1 showed a Total of 1 and a Unique of 1.

B2: PRDX2 (protein, UniProt P32119 2-198, looked up)
Peroxiredoxin-2: ASGNARIGKPAPDFKATAVVDGAFKEVKLSDYKGKYVVLFFYPLDFTFVCPTEIIAFSNRAEDFRKLGCEVLGVSVDSQFTHLAWINTPRKEGGLGPLNIPLLADVTRRLSEDYGVLKTDEGIAYRGLFIIDGKGVLRQITVNDLPVGRSVDEALRLVQAFQYTDEHGEVCPAGWKPGSDTIKPNVDDSKEYFSKHN
B2 showed a Total of 1 and a Unique of 1.

B3: TMED9 (protein, UniProt Q9BVK6 38-235, looked up)
Transmembrane emp24 …: LYFHIGETEKKCFIEEIPDETMVIGNYRTQLYDKQREEYQPATPGLGMFVEVKDPEDKVILARQYGSEGRFTFTSHTPGEHQICLHSNSTKFSLFAGGMLRVHLDIQVGEHANDYAEIAAKDKLSELQLRVRQLVEQVEQIQKEQNYQRWREERFRQTSESTNQRVLWWSILQTLILVAIGVWQMRHLKSFFEAKKLV
Work on B3 yielded a Total of 1 and a Unique of 1.

B4: UQCRC1 (protein, UniProt P31930 35-480, looked up)
Cytochrome b-c1 complex …: TATFAQALQFVPETQVSLLDNGLRVASEQSSQPTCTVGVWIDVGSRFETEKNNGAGYFLEHLAFKGTKNRPGSALEKEVESMGAHLNAYSTREHTAYYIKALSKDLPKAVELLGDIVQNCSLEDSQIEKERDVILREMQENDASMRDVVFNYLHATAFQGTPLAQAVEGPSENVRKLSRADLTEYLSTHYKAPRMVLAAAGGVEHQQLLDLAQKHLGGIPWTYAEDAVPTLTPCRFTGSEIRHRDDALPFAHVAIAVEGPGWASPDNVALQVANAIIGHYDCTYGGGVHLSSPLASGAVANKLCQSFQTFSICYAETGLLGAHFVCDRMKIDDMMFVLQGQWMRLCTSATESEVARGKNILRNALVSHLDGTTPVCEDIGRSLLTYGRRIPLAEWESRIAEVDASVVREICSKYIYDQCPAVAGYGPIEQLPDYNRIRSGMFWLRF
Molecule B4 has a Total of 1 and a Unique of 1.

B5: DNAAF2 (protein, UniProt Q9NVR5 1-837, looked up)
Protein kintoun: MAKAAASSSLEDLDLSGEEVQRLTSAFQDPEFRRMFSQYAEELTDPENRRRYEAEITALERERGVEVRFVHPEPGHVLRTSLDGARRCFVNVCSNALVGAPSSRPGSGGDRGAAPGSHWSLPYSLAPGREYAGRSSSRYMVYDVVFHPDALALARRHEGFRQMLDATALEAVEKQFGVKLDRRNAKTLKAKYKGTPEAAVLRTPLPGVIPARPDGEPKGPLPDFPYPYQYPAAPGPRAPSPPEAALQPAPTEPRYSVVQRHHVDLQDYRCSRDSAPSPVPHELVITIELPLLRSAEQAALEVTRKLLCLDSRKPDYRLRLSLPYPVDDGRGKAQFNKARRQLVVTLPVVLPAARREPAVAVAAAAPEESADRSGTDGQACASAREGEAGPARSRAEDGGHDTCVAGAAGSGVTTLGDPEVAPPPAAAGEERVPKPGEQDLSRHAGSPPGSVEEPSPGGENSPGGGGSPCLSSRSLAWGSSAGRESARGDSSVETREESEGTGGQRSACAMGGPGTKSGEPLCPPLLCNQDKETLTLLIQVPRIQPQSLQGDLNPLWYKLRFSAQDLVYSFFLQFAPENKLSTTEPVISISSNNAVIELAKSPESHGHWREWYYGVNNDSLEERLFVNEENVNEFLEEVLSSPFKQSMSLTPPLIEVLQVTDNKIQINAKLQECSNSDQLQGKEERVNEESHLTEKEYIEHCNTPTTDSDSSIAVKALQIDSFGLVTCFQQESLDVSQMILGKSQQPESKMQSEFIKEKSATCSNEEKDNLNESVITEEKETDGDHLSSLLNKTTVHNIPGFDSIKETNMQDGSVQVIKDHVTNCAFSFQNSLLYDLD
In the case of B5, the Total is reported as 1 and the Unique is reported as 1.
